Results are given in words; binding and its absence hold for the method and conditions named. Binding calls can cover weak binding; strength is not graded here.

Amino acid sequences for entries named in this document (tags omitted). A change or cut given only in a name is not applied to a line headed by its entry. Chains listed by the source or under a name are the forms on record and can include a tag or linker.
wild-type recombinant mouse MASP-3 with ALFA tag (WT rmMASP-3-ALFA) (P98064-2, form named): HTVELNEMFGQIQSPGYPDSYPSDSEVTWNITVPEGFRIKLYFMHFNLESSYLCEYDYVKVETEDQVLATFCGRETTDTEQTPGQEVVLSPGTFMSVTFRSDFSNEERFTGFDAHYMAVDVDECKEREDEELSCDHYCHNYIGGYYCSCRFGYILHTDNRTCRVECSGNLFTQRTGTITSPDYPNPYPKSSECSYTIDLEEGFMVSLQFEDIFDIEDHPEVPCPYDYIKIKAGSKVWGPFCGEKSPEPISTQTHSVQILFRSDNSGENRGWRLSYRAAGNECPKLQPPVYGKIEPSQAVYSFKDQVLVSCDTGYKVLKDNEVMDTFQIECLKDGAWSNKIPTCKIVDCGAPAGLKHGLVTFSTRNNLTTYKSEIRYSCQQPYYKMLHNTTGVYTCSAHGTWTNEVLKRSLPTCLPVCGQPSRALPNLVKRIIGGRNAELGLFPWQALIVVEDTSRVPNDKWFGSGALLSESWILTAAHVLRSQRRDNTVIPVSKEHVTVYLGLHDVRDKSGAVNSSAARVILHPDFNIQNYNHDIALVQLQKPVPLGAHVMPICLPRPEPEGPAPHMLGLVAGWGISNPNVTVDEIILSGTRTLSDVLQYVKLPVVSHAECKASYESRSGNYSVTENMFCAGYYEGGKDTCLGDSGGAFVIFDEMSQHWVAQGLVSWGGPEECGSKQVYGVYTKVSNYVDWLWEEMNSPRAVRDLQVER

For the assay, the target named is D102A mutant recombinant mouse MASP-3 fused with PA-tag (mouse) (UniProt P98064). The assay is described as follows: ELISA; sandwich ELISA: 10 ug each of rmMASP-3-PA and rmMASP-3-ALFA mixed, dialysed against TBS/10 mM EDTA 24 h at 4°C, then against TBS/5 mM CaCl2 24 h at 4°C; 0.14 uM of each, serially diluted in 20% Blocking One in TBS/Ca; captured on anti-PA tag antibody, 30 min room temperature; detected with HRP-conjugated anti-ALFA nanobody; both purified. On the technique in general: In an ELISA, binding on a coated surface is turned into a signal by an enzyme label.

Take “wild-type recombinant mouse MASP-3 with ALFA tag (WT rmMASP-3-ALFA) (from UniProt P98064-2 25-733) (enzyme)”: the binding result is given as “binds”.
